Measured values as given in publication doi:10.1101/2022.11.06.515384.
No constants are given. Whether binding was seen depends on the method and setting. Binding seen in cells or lysates may run through a third protein. Some results given as binding are weak or reduced against the parent protein; the word gives no strength.

Chains of the proteins cited; added tags and fusions are not shown.
UniProt P14618: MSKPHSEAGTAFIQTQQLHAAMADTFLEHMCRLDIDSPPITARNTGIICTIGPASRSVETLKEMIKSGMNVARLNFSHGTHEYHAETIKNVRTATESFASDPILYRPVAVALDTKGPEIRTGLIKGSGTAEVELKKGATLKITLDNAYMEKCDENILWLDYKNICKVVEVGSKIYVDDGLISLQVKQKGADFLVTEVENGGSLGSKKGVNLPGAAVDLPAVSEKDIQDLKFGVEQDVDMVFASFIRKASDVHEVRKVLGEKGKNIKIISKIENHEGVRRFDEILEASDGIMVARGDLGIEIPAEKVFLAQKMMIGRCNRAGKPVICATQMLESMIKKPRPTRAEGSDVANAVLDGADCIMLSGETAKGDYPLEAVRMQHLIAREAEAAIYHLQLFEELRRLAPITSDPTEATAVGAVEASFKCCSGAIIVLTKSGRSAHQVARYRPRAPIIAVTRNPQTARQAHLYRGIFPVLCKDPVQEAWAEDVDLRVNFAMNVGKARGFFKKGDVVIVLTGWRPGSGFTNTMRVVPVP
UniProt Q16665: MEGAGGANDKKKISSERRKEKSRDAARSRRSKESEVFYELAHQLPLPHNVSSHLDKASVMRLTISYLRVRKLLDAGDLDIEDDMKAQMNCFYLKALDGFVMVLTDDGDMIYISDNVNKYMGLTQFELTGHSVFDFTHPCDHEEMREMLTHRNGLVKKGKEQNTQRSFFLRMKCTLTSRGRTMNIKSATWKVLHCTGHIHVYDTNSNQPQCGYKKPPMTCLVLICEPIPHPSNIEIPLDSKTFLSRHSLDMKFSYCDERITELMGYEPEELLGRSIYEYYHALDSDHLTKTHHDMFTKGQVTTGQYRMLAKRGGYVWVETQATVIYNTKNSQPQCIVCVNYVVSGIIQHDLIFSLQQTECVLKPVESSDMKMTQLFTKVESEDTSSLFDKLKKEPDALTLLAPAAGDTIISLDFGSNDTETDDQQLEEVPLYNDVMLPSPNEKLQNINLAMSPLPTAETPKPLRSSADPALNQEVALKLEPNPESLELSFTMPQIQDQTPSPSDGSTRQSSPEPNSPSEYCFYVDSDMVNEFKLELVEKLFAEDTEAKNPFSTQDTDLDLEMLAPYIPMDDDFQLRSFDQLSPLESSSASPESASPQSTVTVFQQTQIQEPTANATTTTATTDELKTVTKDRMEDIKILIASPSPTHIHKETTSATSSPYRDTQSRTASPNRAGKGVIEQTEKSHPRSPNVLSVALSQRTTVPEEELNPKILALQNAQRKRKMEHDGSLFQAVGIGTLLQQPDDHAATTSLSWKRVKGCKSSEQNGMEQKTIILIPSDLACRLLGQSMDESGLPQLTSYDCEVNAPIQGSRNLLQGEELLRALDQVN

Experiments:
[1] = molecular target: M2 isoform of pyruvate kinase (PKM2) (human (endogenous in MCF7 and HCC1806)) (UniProt P14618); assay: co-IP
[2] = molecular target: HIF-1α (human (endogenous in MCF7 and HCC1806)) (UniProt Q16665); assay: co-IP

Substance | binding [1] | binding [2]
HIF-1α (from UniProt Q16665 1-826) | binds | 
M2 isoform of pyruvate kinase (PKM2) (from UniProt P14618 1-531) (enzyme) |  | binds
